# Laboratory results from paper PMC7757041.
# Amino acid sequences for entries named in this document (tags omitted). A change or cut given only in a name is not applied to a line headed by its entry. Residues count along the entry.
# UniProt P35613: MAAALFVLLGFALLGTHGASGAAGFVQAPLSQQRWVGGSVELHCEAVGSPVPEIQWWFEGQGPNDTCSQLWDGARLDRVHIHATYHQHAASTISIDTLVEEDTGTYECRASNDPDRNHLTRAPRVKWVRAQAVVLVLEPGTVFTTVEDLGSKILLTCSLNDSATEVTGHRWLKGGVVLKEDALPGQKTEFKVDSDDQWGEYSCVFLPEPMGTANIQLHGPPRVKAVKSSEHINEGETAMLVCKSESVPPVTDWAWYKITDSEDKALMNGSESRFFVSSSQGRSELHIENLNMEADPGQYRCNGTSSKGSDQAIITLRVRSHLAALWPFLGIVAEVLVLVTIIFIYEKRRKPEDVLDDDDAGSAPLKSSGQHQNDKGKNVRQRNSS
# UniProt P10809, residues 27-573: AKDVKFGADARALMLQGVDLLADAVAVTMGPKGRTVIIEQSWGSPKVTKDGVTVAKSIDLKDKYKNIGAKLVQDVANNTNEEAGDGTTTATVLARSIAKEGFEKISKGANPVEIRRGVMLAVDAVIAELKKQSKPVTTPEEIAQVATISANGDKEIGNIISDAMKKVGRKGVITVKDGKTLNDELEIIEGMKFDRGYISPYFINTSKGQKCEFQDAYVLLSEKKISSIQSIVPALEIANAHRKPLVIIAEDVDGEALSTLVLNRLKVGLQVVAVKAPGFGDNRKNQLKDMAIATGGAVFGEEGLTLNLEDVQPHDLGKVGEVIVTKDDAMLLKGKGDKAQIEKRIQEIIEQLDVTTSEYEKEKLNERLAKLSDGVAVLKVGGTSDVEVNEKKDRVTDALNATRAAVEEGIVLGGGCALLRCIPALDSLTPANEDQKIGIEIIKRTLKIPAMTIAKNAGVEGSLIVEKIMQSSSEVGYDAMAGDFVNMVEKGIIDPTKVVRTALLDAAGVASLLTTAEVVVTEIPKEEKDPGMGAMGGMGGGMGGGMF
# Target: CD147 (UniProt P35613)
# Test: co-IP; exogenous proteins; cells lysed in NP40 lysis buffer on ice 30 min; 1.5 ug antibody, protein A/G agarose beads, overnight at 4 °C; beads rinsed 3 times with NP40 buffer
substance,measurement,value
heat shock protein 60 (from UniProt P10809 27-573),binding,binds

# Results are given in words; binding and its absence hold for the method and conditions named. Binding seen in cells or lysates may run through a third protein. Binding calls can cover weak binding; strength is not graded here.
